According to PubChem BioAssay AID210 (DTP/NCI, 2004):
The list shows only some results of the screen, not a fair sample: it is rich in T/C values a quarter to a half above the control, in often repeated tests (any T/C) and in doses without a T/C. Other doses and runs of a compound stand elsewhere. T/C is the treated group as % of the vehicle group. Some entries give survivors of the animals treated and no T/C: the source files T/C as zero there, which appears to mark a toxic dose or a test without result, not a measured value. Some survivor counts are full or nearly so, which does not show that the dose was tolerated: survival well below the control is almost never listed, so the zero probably covers shortened survival too. Survivors were counted at the toxicity check, usually on the fifth day, unless a day is given; later deaths do not show. Schedules are NCI's codes, taken here to give the interval after Q, in days (D) or hours (H), and the number of doses after X. Some entries hold several experiments; their values stand side by side, smallest first. Where survival is the endpoint, the PubChem record calls one and a half times the control and up active, and a quarter to a half above the control has no call in these data; cut-offs in other NCI protocols can differ. Some T/C values are followed by the survivors on the day toxicity was checked, most often the fifth; where none is given, no animal had died by that day.

System: CD2F1 mice, ip Colon 26 adenocarcinoma, median survival T/C
Assay: NCI In Vivo Anticancer Drug Screen. Data for tumor model Colon 26 Adenocarcinoma (intraperitoneal) in CD2F1 (CDF1) mice
Details: T/C endpoint: median survival time, higher T/C = longer survival
Procedure: The antitumor activity of compounds was measured in mice bearing transplantable tumors. Survival or tumor size were measured and the results are expressed as the measurement made in the treated group (T) divided by the measurement made in the vehicle treated control group (C). The tumor model used in this assay is Colon 26 Adenocarcinoma (intraperitoneal) in CD2F1 (CDF1) mice

[1] = dose: 400.0 mg/kg/injection, schedule: Q04DX003 (ip), vehicle: saline
[2] = dose: 100.0 mg/kg/injection, schedule: Q04DX003 (ip), vehicle: Klucel (hydroxypropylcellulose) (HPC)
[3] = dose: 50.0 mg/kg/injection, schedule: Q04DX003 (ip), vehicle: Klucel (hydroxypropylcellulose) (HPC)

`N=C(N)SCc1c2ccccc2c(CSC(=N)N)c2ccccc12` was tested, and the survivor count [1] was 7 of 10.
For `CC(=O)OCc1cc(=O)n(C)c2c3c4c(cc12)c(C)cc(=O)n4CO3`, the T/C [2] was 132 % of control.
For `NCCc1ccc(O)c(O)c1`, the survivor count (dose: 12.5 mg/kg/injection, schedule: Q04DX003 (ip), vehicle: saline) was 6 of 10, the survivor count (dose: 100.0 mg/kg/injection, schedule: Q04DX003 (ip), vehicle: saline) was 6 of 10 and the survivor count (dose: 200.0 mg/kg/injection, schedule: Q04DX003 (ip), vehicle: saline) was 8 of 10. The survivor count [1] was 6 of 10.
`CCOC(=O)C1C2OC(=O)C(C(=O)C2CN(CCCl)CCCl)C1C1CC=C(CC2=CCC(C3C4C(=O)OC(C(CN(CCCl)CCCl)C4=O)C3C(=O)OCC)CC2)CC1` (stereo unspecified) was tested, and the T/C (dose: 12.5 mg/kg/injection, schedule: Q04DX003 (ip), vehicle: Klucel (hydroxypropylcellulose) (HPC)) was 132 % of control, the T/C (dose: 25.0 mg/kg/injection, schedule: Q04DX003 (ip), vehicle: Klucel (hydroxypropylcellulose) (HPC)) was 139 % of control and the T/C [3] was 142 % of control. The survivor count (dose: 400.0 mg/kg/injection, schedule: Q04DX003 (ip), vehicle: Klucel (hydroxypropylcellulose) (HPC)) was 9 of 10.
For `CCC1(O)CC2CN(CCc3c([nH]c4ccccc34)C(C(=O)OC)(c3cc4c(cc3OC)N(C)C3C(O)(C(=O)NCCSSCCNC(=O)C5(O)C(O)C6(CC)C=CCN7CCC8(c9cc(C%10(C(=O)OC)CC%11CN(CCc%12c%10[nH]c%10ccccc%12%10)CC(O)(CC)C%11)c(OC)cc9N(C)C58)C76)C(O)C5(CC)C=CCN6CCC43C65)C2)C1` (stereo unspecified), the survivor count (dose: 2500.0 micrograms/kg/injection, schedule: Q04DX003 (ip), vehicle: saline) was 5 of 8.
With `Nc1nc(=S)c2[nH]cnc2[nH]1` the T/C (dose: 2.0 mg/kg/injection, schedule: Q04DX003 (ip), vehicle: alkali diluted with saline, evaluated on day 60) was 105 % of control, the T/C (dose: 2.0 mg/kg/injection, schedule: Q04DX003 (ip), vehicle: alkali diluted with saline, evaluated on day 70) was 106 [9 of 10 alive], 114, 120, 125, 182 % of control and the T/C (dose: 4.0 mg/kg/injection, schedule: Q04DX003 (ip), vehicle: alkali diluted with saline, evaluated on day 60) was 141 % of control [9 of 10 alive]. For the same compound, the T/C (dose: 4.0 mg/kg/injection, schedule: Q04DX003 (ip), vehicle: alkali diluted with saline, evaluated on day 70) was 119, 120, 124, 140, 166 % of control, the T/C (dose: 8.0 mg/kg/injection, schedule: Q04DX003 (ip), vehicle: alkali diluted with saline, evaluated on day 60) was 192 % of control and the T/C (dose: 8.0 mg/kg/injection, schedule: Q04DX003 (ip), vehicle: alkali diluted with saline, evaluated on day 70) was 135, 145, 156, 162, 247 % of control. The T/C (dose: 16.0 mg/kg/injection, schedule: Q04DX003 (ip), vehicle: alkali diluted with saline, evaluated on day 60) was 138 % of control, the T/C (dose: 16.0 mg/kg/injection, schedule: Q04DX003 (ip), vehicle: alkali diluted with saline, evaluated on day 70) was 132, 142, 147, 157, 232 % of control and the T/C (dose: 32.0 mg/kg/injection, schedule: Q04DX003 (ip), vehicle: alkali diluted with saline, evaluated on day 60) was 116 % of control [8 of 10 alive]. The T/C (dose: 32.0 mg/kg/injection, schedule: Q04DX003 (ip), vehicle: alkali diluted with saline, evaluated on day 70) was 154, 163 [9 of 10 alive], 166 % of control and the survivor count (dose: 32.0 mg/kg/injection, schedule: Q04DX003 (ip), vehicle: alkali diluted with saline) was 8 of 10 and 10 of 10.
`Nc1ncnc2c1ncn2C1OC(CO)CC1O` (stereo unspecified) was tested, and the survivor count (dose: 300.0 mg/kg/injection, schedule: Q04DX002 (ip), vehicle: Klucel (hydroxypropylcellulose) (HPC)) was 6 of 10.
For `NNC(=O)c1ccncc1`, the survivor count (dose: 288.0 mg/kg/injection, schedule: Q04DX002 (ip), vehicle: saline) was 5 of 10, the survivor count (dose: 576.0 mg/kg/injection, schedule: Q04DX002 (ip), vehicle: saline) was 0 of 10 and the survivor count (dose: 1152.0 mg/kg/injection, schedule: Q04DX002 (ip), vehicle: saline) was 0 of 10.
In the case of `Cc1cc(=O)n2c3c(c4c(cc13)c(CN(C)C)cc(=O)n4C)OC2`, the survivor count (dose: 100.0 mg/kg/injection, schedule: Q04DX002 (ip), vehicle: saline with Tween-80) is reported as 3 of 10 and the survivor count (dose: 200.0 mg/kg/injection, schedule: Q04DX002 (ip), vehicle: saline with Tween-80) is reported as 0 of 10.
In the case of `Nc1ccc(Cl)cc1N`, the survivor count (dose: 400.0 mg/kg/injection, schedule: Q04DX003 (ip), vehicle: saline + Tween-80 + alcohol) is reported as 10 of 10.
`C=C1C(=O)C23C(O)CC4C5(C)CCCC4(C(O)OC5)C2C(OC(C)=O)CC1C3O` (stereo unspecified) was tested, and the survivor count (dose: 128.0 mg/kg/injection, schedule: Q04DX002 (ip), vehicle: saline with Tween-80) was 9 of 10 and the survivor count (dose: 256.0 mg/kg/injection, schedule: Q04DX002 (ip), vehicle: saline with Tween-80) was 5 of 10.
`Cc1c[nH]c(=O)[nH]c1=O` was tested, and the survivor count (dose: 512.0 mg/kg/injection, schedule: Q04DX002 (ip), vehicle: Klucel (hydroxypropylcellulose) (HPC)) was 10 of 10 and the survivor count (dose: 1024.0 mg/kg/injection, schedule: Q04DX002 (ip), vehicle: Klucel (hydroxypropylcellulose) (HPC)) was 10 of 10.
`C/C=C/C1=CC(=O)C(O)C1O` (stereo unspecified) was tested, and the survivor count (dose: 360.0 mg/kg/injection, schedule: Q04DX002 (ip), vehicle: water) was 1 of 10.
`CC[C@@]1(O)C[C@H](OC2CC(N(C)C)C(OC3CC(O)C(OC4CCC(=O)C(C)O4)C(C)O3)C(C)O2)c2c(cc3c(c2O)C(=O)c2c(O)cccc2C3=O)[C@H]1C(=O)OC` (stereo partly specified) was tested, and the survivor count (dose: 26.0 mg/kg/injection, schedule: Q07DX003 (iv), vehicle: water) was 10 of 10.
`CC1(C)CC23C4COC(=O)C2CCC1C3CC4=O` (stereo unspecified) was tested, and the survivor count (dose: 250.0 mg/kg/injection, schedule: Q04DX002 (ip), vehicle: saline with Tween-80) was 7 of 10, the survivor count (dose: 288.0 mg/kg/injection, schedule: Q04DX003 (ip), vehicle: DMSO) was 10 of 10 and the survivor count (dose: 400.0 mg/kg/injection, schedule: Q04DX003 (ip), vehicle: DMSO) was 9 of 10.
For `Cc1ccc(C(=O)[O][Hg][CH2]C2COC([CH2][Hg][O]C(=O)c3ccc(C)cc3)CO2)cc1` (stereo unspecified), the survivor count [3] was 8 of 10, the survivor count [2] was 0 of 10 and the survivor count (dose: 200.0 mg/kg/injection, schedule: Q04DX003 (ip), vehicle: Klucel (hydroxypropylcellulose) (HPC)) was 2 of 10.
